# Results: patent US20220370543A1, “METHODS OF TREATMENT FOR MODIFYING HEMODYNAMICS” (EBI ANTI SEPSIS B.V., priority 2019, published 2022)
# “Also recorded” adds a separate entry of the source. Part of at least one peptide drawing is inferred or uncertain, most often the ends. Peptide text beside a SMILES is read from it.
# Key:
# Assay type in all cases: in vivo, human
# [1] = tested on: patients undergoing on-pump coronary artery bypass grafting (CABG); experiment: EASI phase II study: renal function (GFR, creatinine, AKI by RIFLE criteria)
# [2] = tested on: patients undergoing on-pump coronary artery bypass grafting (CABG); experiment: EASI phase II study: hemodynamics (fluid balance, vasopressor use); conditions: for Netto fluid balance day 0-2, Mean / Netto fluid balance day 0-2, Median: first 72 hours
# [3] = tested on: patients undergoing on-pump coronary artery bypass grafting (CABG); experiment: EASI phase II study: length of stay in ICU and hospital, readmissions
# [4] = tested on: interleukin-6 plasma concentrations; experiment: EASI phase II study: immunomodulation (plasma cytokines, urinary injury markers)
# [5] = baseline kidney function above 60 ml/min/1.73 m2
# [6] = baseline kidney function below 60 ml/min/1.73 m2
# [7] = day +1 vs day -1, all patients, vs placebo
smiles,measurement,setting,value
"CC(C)[C@H](NC(=O)CNC(=O)[C@H](CCC(N)=O)NC(=O)[C@H](C)N)C(=O)O [EA-230, AQGV] (H-AQGV-OH)","AKI stage Injury, patients","[1]; RIFLE criteria, placebo 18%, p=0.07",7%
same,Effect on GFR (MDRD),[1]; [5],no statistically significant differences were found between groups
same,Effect on plasma creatinine,[1]; [5],no differences were observed; also recorded: no statistically significant differences were found between groups
same,Effect on GFR (MDRD),"[1]; baseline kidney function above 60 ml/min/1.73 m2, listed as EA 230",no differences were found between groups
same,Effect on GFR (MDRD),[1]; [6],significantly (p=0.021) improved estimated GFR after surgery
same,Effect on plasma creatinine,[1]; [6],clearance of creatinine was significantly improved; also recorded: significantly (p=0.012) improved creatinine levels
same,Effect on GFR (MDRD),"[1]; baseline kidney function below 60 ml/min/1.73 m2, listed as EA 230",significantly improved estimated GFR after surgery
same,Effect on GFR (MDRD) / kidney function after surgery,[1]; [7],significantly improved renal function; also recorded: significant overall improvement of kidney function; also recorded: significantly improved kidney function; also recorded: significantly improved GFR after surgery
same,Effect on plasma creatinine after surgery,[1]; [7],significantly improved post-surgery; also recorded: significantly improved creatinine levels after surgery
same,Effect on GFR after surgery,"[1]; long duration of cardio-pulmonary bypass / infusion (>median, >156 min)",highly significant statistical improvements of kidney function; also recorded: significantly improved GFR after surgery
same,meanΔ±SEM eGFRMDRD following surgery,"[1]; placebo 2±1, p=0.01",6±1 ml/min/1.73 m2
same,meanΔ±SEM GFRiohexol following surgery,"[1]; placebo 16±2, p=0.13",19±2 ml/min/1.73 m2
same,Effect on GFR after surgery,[1]; short duration of cardio-pulmonary bypass / infusion (<median),no differences were found between groups
same,Effect on clearance of iohexol,[1]; vs placebo,did not show effects on clearance of iohexol
same,Effect on incidence of AKI stages (RIFLE criteria),[1]; vs placebo,tended to prevent AKI; also recorded: the number of patients with no AKI increased; also recorded: the percentage of patients with no AKI increased
same,Effect on incidence of AKI stages (RIFLE criteria),"[1]; vs placebo, listed as AQGV",the number of patients suffering from AKI Injury was reduced
same,"days on vasopressin, Mean",[2]; RIFLE score AKI,1.97 days
same,"days on vasopressin, Median",[2]; RIFLE score AKI,2.00 days
same,"Netto fluid balance day 0-2, Mean",[2]; RIFLE score AKI,2549.16
same,"Netto fluid balance day 0-2, Median",[2]; RIFLE score AKI,2328.80
same,"days on vasopressin, Mean",[2]; RIFLE score no AKI,1.37 days
same,"days on vasopressin, Median",[2]; RIFLE score no AKI,1.00 days
same,"Netto fluid balance day 0-2, Mean",[2]; RIFLE score no AKI,1348.47
same,"Netto fluid balance day 0-2, Median",[2]; RIFLE score no AKI,1213.70
same,Effect on hemodynamic stability (need for fluid therapy and blood pressure medication),"[2]; after surgery, vs placebo",overall significant improvement of hemodynamic stability; also recorded: significantly reduced the need for hemodynamic therapy; also recorded: significant improvement of hemodynamic parameters; also recorded: improves hemodynamic stability; also recorded: significantly improves hemodynamic recovery after surgery
same,Use of vasopressors,"[2]; first 24 hours of ICU, total group, vs placebo",the use of vasopressors was reduced
same,Required blood pressure medication use,[2]; half of patients treated longest (>156 min; p=0.093),considerable reduction of required blood pressure medication use
same,Net (netto) fluid balance,[2]; patients both with and without AKI,decreased the net (netto) fluid balance
same,Need for vasopressors,[2]; patients with AKI,decreased the need for vasopressors
same,"Fluids needed (net fluid balance), mean±SEM","[2]; placebo 605±103, p=0.01",217 ± 108 mL
same,Post-operative hemodynamic stability,[2]; prolonged treatment (longer than median) vs shorter than median,benefits significantly from prolonged use
same,Patients in ICU 24 hours after ICU admission,"[3]; control group 22%, p=0.02",12%
same,Length of stay of patients who developed AKI Injury,[3]; correlation with RIFLE score per treatment group,did not have a prolonged hospital length-of-stay
same,Reduction of total post-operative length-of-stay,"[3]; n=90, vs placebo",about 3 days
same,CABG-study Re-admission day 90 (number of patients),"[3]; period 29-90 days after operation, 91 patients",2
same,CABG-study Re-admission day 28 (number of patients),"[3]; period of 28 days after operation, 91 patients",2
same,"Length-of-stay at ICU, on average",[3]; placebo 40 hours,25 h
same,"Hospital care needed, on average",[3]; placebo about 10 days,about 8 days
same,Left the hospital faster than placebo-treated patients,[3]; placebo nearly 12 hospital days on average,2.5 days
same,Total CABG-study Re-admission (number of patients),"[3]; total period of 90 days after operation, placebo 10, p=0.09",4
same,Effect on re-admissions to the hospital,"[3]; up to 90 days after surgery, vs placebo",reduction of hospital re-admission; also recorded: fewer EA-230-treated patients needed re-hospitalization; also recorded: considerable (p=0.09) reduction of the number of re-admissions
same,Effect on length of stay in ICU and hospital,[3]; vs placebo,statistically highly significant reduction in LOS; also recorded: significantly shortened post-surgery recovery stay at the ICU; also recorded: significant reduction of the length of stay; also recorded: released faster from intensive care
same,Reduction of length-of-stay in the hospital,[3]; vs placebo,over 20%
same,Shorter length-of-stay in the ICU,[3]; vs placebo,~40%
same,Effect on length of stay in ICU and hospital,"[3]; vs placebo, listed as AQGV peptide",significantly reduced
same,Immunomodulatory effects,[4]; treated patients vs control subjects,no immunomodulatory effects were observed; also recorded: no immunomodulatory or anti-inflammatory effects were apparently observed
same,"Effect on inflammatory renal injury markers IL-18, KIM1, NGAL, L-FABP and NAG","[4]; urinary, vs placebo",no significant difference
same,"Effect on plasma IL-8, IL-10, IL-1RA, IL-17, MIP-1a, MIP-1b, MCP-1, ICAM, VCAM and other cytokines",[4]; vs placebo,no significant difference; also recorded: did not result in a significant change
same,Effect on primary endpoint plasma IL-6,[4]; vs placebo,did not modulate IL-6; also recorded: no effects on CABG-induced cytokine responses; also recorded: missed; also recorded: did not result in a significant change
